Laboratory results from patent publication US20100204143A1, “GAMMA 1 MSH ALONE OR IN COMBINATION WITH PENTAGASTRIN AS A THERAPEUTIC AGENT” (priority 2007, published 2010).
At least one compound was matched to its structure with a doubt left.

Assays:
IL-4 spleen cells = assay: Th1/Th2 cytokine profiling assay: IL-4; type: cell-based, Balb/c mice; settings: 10 micrograms per ml; Ovalbumin restimulation; 72 hours
[1] = tested on: cyclic AMP generation in human peripheral blood mononuclear cells (PBMC); assay: cAMP induction assay; type: cell-based; settings: single peptides, 10 min at 37° C.
Protocol: The cAMP kit was used as an immunoassay for the quantitative determination of cyclic AMP generation in human peripheral blood mononuclear cells (PBMC). PBMC were placed in 96-well microtitier plates (50 microliters of cells at 4×10^6/ml) and 50 microliters of medium alone (background control), forskolin (cAMP positive control; 50 micrograms per ml), or test peptides were added. Plates were mixed and incubated for 10 min at 37° C. and the cells were lysed by the addition of 50 microliters of 3% perchloric acid. NaOH was added to neutralize the samples. Plates were centrifuged for 15 min at 2500 rpm and the supernatants removed. The supernatants (diluted 2-fold in assay buffer) were then assayed for the levels of cAMP by ELISA.

IFNγ spleen cells = assay: Th1/Th2 cytokine profiling assay: IFNγ; type: cell-based, Balb/c mice; settings: 10 micrograms per ml; Ovalbumin restimulation; 72 hours
IL-2 spleen cells = assay: Th1/Th2 cytokine profiling assay: IL-2; type: cell-based, Balb/c mice; settings: 10 micrograms per ml; Ovalbumin restimulation; 72 hours
[2] = tested on: hepatitis B virus (HBV) ayw strain; assay: HBV experimental assay system (HepG2-2.2.15, TaqMan PCR of HBV DNA); type: cell-based; settings: 10 micrograms per ml; six days; as compared to the virus control infection
[3] = tested on: Primary Human endothelial cells (HUVEC); assay: Endothelial cell migration assay; type: cell-based; settings: 10 micrograms per ml, 22 hours
IL-5 spleen cells = assay: Th1/Th2 cytokine profiling assay: IL-5; type: cell-based, Balb/c mice; settings: 10 micrograms per ml; Ovalbumin restimulation; 72 hours
TNF-a spleen cells = assay: Th1/Th2 cytokine profiling assay: TNF-a; type: cell-based, Balb/c mice; settings: 10 micrograms per ml; Ovalbumin restimulation; 72 hours

CSCC[C@H](NC(=O)[C@H](Cc1c[nH]c2ccccc12)NC(=O)CCNC(=O)OC(C)(C)C)C(=O)N[C@@H](CC(=O)O)C(=O)N[C@@H](Cc1ccccc1)C(N)=O [peptide 2, Boc-β-Ala-Trp-Met-Asp-Phe-NH2]
IL-4 spleen cells; TH2 response (% of control) (IL-4 spleen cells): 84.3 % of control | induction of cAMP formation in human peripheral blood cells [1]: did not induce | IFNγ spleen cells; TH1 response (% of control) (IFNγ spleen cells): 92.9 % of control | IL-2 spleen cells (% of control) (IL-2 spleen cells): 61.4 % of control | inhibition of HBV replication [2]: no effect | induction of the migration of human endothelial cells [3]: 15% | IL-5 spleen cells; TH2 response (% of control) (IL-5 spleen cells): 62.6 % of control | TNF-a spleen cells; TH1 response (% of control) (TNF-a spleen cells): 105.2 % of control
